Assay in all cases: proximity labelling
In assay [1] the target is T1, p130Cas (not stated (mouse and non-mouse baits used)) (UniProt Q61140).
T1 sequence: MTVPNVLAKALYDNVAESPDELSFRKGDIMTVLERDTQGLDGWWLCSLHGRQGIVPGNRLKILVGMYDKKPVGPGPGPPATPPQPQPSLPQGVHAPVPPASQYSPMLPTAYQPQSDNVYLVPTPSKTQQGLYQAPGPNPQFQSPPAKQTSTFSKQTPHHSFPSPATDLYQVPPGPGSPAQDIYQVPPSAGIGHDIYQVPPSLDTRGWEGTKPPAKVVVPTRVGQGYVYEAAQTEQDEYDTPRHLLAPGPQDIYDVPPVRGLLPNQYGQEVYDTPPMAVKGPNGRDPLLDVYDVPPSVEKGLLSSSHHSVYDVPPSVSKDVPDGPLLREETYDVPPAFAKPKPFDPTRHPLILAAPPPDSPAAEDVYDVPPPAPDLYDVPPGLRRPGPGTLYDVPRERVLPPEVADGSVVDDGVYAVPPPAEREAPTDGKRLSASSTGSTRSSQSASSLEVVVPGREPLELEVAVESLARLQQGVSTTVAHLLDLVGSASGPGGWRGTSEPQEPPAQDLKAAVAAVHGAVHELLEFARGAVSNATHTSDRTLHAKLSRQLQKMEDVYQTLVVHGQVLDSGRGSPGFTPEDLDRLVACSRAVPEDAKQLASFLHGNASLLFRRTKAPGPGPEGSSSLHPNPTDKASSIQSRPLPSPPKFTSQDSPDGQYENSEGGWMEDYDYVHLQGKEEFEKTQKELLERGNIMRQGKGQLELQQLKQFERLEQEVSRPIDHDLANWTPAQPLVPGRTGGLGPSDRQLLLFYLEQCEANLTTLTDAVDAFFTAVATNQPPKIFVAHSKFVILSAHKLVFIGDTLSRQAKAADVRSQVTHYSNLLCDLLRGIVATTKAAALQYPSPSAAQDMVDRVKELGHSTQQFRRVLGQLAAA

Sequences of proteins named here, by UniProt entry; tags and fusion partners are left off.
UniProt Q8VI36: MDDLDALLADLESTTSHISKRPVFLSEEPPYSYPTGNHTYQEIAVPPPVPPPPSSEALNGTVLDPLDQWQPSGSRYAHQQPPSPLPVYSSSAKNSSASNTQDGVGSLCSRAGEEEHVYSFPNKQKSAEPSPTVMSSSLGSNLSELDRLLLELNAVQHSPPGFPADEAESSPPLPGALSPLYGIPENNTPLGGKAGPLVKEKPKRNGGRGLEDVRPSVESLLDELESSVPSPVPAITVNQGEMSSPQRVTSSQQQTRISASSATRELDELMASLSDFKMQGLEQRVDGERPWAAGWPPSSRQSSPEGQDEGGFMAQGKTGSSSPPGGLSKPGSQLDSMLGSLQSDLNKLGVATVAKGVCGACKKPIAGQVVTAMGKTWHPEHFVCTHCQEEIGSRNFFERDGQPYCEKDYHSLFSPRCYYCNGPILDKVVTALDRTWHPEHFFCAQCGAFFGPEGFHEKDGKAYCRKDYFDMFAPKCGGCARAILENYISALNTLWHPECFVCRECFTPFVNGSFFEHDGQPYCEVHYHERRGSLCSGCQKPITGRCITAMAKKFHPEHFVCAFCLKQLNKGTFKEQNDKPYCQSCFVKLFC
UniProt Q99JW4: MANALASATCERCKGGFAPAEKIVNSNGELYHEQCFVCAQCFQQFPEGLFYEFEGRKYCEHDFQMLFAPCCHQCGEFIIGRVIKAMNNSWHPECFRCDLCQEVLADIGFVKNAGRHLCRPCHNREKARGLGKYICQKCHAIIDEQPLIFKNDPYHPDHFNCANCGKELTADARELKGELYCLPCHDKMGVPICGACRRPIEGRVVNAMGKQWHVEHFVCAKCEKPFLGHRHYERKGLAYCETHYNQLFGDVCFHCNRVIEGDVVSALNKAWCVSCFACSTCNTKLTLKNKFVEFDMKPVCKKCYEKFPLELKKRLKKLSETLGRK
UniProt P34152: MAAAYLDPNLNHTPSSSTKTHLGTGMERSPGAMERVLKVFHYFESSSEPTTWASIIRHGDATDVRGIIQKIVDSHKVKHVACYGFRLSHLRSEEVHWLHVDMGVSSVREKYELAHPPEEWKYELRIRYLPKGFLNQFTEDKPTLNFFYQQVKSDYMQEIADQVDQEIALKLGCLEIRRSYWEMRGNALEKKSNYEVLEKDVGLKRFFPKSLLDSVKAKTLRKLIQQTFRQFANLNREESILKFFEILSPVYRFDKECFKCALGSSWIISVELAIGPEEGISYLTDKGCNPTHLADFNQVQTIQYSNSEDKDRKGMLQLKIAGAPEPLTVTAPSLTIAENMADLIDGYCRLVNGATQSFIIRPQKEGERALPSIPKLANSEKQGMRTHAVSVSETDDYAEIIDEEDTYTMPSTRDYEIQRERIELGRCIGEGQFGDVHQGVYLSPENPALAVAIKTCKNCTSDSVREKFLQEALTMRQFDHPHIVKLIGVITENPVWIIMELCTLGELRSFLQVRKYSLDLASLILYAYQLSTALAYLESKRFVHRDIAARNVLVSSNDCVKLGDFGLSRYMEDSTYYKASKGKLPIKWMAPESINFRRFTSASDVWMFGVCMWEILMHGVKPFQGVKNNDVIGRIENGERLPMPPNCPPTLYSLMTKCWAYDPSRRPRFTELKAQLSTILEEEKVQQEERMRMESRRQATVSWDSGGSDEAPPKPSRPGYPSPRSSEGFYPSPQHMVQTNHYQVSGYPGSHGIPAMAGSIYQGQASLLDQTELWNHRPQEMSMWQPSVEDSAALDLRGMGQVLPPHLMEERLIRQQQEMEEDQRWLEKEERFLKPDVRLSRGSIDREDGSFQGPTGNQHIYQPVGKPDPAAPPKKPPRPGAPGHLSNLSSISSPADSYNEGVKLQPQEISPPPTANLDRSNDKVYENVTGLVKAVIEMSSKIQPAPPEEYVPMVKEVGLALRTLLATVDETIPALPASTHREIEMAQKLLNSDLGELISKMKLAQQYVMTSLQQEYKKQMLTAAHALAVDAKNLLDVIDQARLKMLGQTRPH
UniProt Q69Z38: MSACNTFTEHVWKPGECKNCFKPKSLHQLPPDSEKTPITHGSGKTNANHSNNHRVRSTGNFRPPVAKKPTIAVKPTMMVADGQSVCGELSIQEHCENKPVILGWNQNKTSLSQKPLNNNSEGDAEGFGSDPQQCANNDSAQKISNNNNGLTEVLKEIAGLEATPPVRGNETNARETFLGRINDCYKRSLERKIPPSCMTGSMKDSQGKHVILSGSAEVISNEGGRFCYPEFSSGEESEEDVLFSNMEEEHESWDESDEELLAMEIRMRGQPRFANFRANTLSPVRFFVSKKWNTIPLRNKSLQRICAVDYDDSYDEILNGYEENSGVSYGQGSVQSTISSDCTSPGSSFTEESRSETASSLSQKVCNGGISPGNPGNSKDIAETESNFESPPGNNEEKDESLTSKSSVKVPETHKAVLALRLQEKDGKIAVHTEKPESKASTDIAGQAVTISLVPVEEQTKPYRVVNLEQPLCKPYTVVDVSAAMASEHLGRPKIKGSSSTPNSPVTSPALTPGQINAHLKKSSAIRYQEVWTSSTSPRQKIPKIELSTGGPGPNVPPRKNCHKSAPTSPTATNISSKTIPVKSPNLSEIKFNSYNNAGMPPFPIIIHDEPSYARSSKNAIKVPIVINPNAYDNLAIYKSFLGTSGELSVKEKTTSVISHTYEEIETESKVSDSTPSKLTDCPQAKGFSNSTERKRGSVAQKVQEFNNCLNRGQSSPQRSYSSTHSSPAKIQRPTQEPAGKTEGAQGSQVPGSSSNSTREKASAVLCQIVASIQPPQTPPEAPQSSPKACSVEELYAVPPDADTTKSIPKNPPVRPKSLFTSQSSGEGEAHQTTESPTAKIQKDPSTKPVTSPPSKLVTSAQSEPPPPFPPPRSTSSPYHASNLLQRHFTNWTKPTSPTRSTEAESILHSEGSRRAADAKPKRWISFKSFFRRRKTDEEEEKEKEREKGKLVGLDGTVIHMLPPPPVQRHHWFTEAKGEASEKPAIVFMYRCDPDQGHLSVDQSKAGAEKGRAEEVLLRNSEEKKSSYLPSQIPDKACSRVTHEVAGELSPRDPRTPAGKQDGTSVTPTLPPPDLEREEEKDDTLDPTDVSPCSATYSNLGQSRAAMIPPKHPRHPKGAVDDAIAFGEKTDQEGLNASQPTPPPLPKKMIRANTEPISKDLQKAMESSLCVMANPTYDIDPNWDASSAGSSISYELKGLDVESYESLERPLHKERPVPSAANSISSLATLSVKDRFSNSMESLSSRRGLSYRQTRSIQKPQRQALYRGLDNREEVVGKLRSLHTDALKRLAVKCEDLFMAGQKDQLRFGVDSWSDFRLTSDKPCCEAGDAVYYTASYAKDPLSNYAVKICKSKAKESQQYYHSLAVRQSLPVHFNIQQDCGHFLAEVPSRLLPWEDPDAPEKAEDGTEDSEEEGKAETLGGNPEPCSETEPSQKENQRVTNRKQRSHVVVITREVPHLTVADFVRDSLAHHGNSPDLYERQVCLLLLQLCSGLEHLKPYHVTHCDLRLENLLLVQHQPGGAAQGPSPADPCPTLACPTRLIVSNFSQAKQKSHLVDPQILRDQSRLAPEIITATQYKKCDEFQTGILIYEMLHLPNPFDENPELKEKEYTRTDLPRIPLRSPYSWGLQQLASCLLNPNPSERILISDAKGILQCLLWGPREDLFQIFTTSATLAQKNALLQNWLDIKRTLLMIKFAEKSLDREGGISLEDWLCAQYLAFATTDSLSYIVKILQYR
UniProt P26039: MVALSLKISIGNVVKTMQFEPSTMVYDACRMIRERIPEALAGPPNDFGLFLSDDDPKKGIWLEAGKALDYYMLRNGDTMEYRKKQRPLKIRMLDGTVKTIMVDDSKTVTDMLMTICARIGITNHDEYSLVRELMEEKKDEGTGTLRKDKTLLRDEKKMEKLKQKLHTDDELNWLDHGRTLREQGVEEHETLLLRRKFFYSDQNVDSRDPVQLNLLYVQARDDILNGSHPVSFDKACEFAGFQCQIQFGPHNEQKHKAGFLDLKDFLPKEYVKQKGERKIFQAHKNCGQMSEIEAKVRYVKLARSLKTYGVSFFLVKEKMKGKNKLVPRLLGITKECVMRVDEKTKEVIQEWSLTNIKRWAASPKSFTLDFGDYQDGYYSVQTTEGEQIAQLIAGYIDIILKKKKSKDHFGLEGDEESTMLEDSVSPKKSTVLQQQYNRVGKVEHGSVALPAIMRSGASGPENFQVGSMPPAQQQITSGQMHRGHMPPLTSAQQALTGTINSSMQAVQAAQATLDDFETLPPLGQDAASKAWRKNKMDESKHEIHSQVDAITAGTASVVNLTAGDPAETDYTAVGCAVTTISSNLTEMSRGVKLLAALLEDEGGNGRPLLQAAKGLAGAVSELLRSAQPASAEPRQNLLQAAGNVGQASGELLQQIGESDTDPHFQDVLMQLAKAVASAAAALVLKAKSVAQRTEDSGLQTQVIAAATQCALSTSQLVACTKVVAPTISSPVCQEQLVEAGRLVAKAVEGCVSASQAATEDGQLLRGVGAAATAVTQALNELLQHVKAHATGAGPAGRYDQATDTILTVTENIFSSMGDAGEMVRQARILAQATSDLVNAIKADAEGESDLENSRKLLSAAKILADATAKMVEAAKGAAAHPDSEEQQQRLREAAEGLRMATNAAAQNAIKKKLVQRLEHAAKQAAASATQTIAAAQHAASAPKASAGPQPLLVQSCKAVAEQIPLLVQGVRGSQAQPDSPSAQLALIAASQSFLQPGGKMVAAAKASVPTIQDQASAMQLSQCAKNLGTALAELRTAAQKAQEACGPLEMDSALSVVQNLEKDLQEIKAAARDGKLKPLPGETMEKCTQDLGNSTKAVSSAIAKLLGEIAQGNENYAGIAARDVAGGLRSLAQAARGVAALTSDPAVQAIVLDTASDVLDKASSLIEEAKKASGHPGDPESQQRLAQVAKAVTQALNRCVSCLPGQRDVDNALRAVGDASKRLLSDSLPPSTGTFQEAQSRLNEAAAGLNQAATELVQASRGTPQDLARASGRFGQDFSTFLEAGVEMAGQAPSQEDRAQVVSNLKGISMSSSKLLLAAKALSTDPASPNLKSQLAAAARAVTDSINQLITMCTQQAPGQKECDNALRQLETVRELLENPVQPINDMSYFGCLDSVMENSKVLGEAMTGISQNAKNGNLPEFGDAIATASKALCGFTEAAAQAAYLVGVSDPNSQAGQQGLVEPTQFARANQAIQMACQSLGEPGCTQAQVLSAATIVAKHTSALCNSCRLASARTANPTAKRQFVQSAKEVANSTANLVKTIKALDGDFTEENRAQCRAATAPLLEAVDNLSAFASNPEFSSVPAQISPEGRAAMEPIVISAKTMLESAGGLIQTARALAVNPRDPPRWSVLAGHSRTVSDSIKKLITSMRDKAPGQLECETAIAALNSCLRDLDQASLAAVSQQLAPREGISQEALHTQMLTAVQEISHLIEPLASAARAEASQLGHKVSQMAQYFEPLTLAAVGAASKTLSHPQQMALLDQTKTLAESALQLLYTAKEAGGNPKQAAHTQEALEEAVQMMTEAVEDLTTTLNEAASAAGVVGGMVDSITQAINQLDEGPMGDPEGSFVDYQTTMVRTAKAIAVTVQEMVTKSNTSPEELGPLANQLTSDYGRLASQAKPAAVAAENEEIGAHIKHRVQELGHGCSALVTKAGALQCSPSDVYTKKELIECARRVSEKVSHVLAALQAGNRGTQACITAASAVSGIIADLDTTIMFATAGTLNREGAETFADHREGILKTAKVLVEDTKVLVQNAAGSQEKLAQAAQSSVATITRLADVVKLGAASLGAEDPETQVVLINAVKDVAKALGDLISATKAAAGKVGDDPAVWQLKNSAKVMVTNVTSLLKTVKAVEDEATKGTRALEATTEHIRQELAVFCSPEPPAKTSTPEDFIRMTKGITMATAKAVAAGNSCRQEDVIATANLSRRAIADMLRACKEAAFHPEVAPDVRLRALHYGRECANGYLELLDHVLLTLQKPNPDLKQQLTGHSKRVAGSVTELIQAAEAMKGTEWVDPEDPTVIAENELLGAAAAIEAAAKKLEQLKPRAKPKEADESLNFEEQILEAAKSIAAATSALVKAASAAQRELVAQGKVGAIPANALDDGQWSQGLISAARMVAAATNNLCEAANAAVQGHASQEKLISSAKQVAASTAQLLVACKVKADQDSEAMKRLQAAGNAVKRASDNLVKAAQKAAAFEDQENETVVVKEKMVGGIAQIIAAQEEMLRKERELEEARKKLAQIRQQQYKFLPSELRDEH

The target of assay [2] is T2, α-parvin (not stated (mouse and non-mouse baits used)) (UniProt Q9EPC1).
T2 sequence: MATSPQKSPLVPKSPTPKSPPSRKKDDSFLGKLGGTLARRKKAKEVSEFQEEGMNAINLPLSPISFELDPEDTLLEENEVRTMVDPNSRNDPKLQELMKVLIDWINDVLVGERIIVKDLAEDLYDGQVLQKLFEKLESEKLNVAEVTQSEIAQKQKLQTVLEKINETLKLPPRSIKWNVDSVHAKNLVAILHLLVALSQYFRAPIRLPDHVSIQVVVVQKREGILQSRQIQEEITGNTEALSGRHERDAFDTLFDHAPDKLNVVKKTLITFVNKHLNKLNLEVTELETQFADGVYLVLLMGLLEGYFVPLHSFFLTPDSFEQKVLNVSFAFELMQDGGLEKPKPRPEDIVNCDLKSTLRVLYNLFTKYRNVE

The target in assay [3] is paxillin (not stated (mouse and non-mouse baits used)) (UniProt Q8VI36).
Assay [4] deals with T3, GIT1 (not stated (mouse and non-mouse baits used)) (UniProt Q68FF6).
T3 sequence: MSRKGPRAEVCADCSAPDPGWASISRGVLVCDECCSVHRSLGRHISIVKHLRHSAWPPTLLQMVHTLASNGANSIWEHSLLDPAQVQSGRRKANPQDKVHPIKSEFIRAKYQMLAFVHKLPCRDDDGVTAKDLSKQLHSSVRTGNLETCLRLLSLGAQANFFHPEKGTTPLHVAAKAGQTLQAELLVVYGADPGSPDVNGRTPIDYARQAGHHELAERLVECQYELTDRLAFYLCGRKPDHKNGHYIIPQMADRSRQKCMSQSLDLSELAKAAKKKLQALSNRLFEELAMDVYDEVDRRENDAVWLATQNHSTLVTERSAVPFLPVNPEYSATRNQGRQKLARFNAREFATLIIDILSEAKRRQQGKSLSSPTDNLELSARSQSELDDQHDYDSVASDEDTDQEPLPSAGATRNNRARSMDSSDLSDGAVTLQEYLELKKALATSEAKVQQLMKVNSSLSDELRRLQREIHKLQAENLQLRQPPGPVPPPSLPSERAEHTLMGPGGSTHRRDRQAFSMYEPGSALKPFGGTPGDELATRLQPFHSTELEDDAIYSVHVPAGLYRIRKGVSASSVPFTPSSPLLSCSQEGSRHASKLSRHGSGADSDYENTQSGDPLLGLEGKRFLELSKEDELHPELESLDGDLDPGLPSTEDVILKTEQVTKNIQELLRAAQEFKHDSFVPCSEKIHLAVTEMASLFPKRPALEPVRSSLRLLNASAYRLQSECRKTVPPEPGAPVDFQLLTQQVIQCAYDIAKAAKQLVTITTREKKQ

The target in assay [5] is T4, ILK (not stated (mouse and non-mouse baits used)) (UniProt O55222).
T4 sequence: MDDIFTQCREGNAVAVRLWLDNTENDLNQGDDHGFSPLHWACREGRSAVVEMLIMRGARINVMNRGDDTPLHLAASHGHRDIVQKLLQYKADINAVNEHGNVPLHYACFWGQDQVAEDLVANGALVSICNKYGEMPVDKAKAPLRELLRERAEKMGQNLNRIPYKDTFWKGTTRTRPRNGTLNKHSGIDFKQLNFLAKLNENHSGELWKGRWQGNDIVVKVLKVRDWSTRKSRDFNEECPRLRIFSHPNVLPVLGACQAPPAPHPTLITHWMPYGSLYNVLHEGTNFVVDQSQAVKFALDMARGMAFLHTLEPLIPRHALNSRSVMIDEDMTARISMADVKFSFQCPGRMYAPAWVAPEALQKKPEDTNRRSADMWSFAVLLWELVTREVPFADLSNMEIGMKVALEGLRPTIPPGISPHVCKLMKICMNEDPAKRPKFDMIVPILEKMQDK

Assay [6] deals with PINCH (not stated (mouse and non-mouse baits used)) (UniProt Q99JW4).

Results are given in words; binding and its absence hold for the method and conditions named. Binding seen in cells or lysates may run through a third protein. Here binding means that the protein was enriched with, or labelled near, the bait; the list need not be complete. For part of these data: No binding means not detected with the bait.

Turning to FAK (from UniProt P34152 1-1052), the binding result in assay [1] is given as “binds”.
Turning to PINCH (from UniProt Q99JW4 1-325), the binding entry in assay [2] is on record as “binds”.
Turning to Peak1 (from UniProt Q69Z38 1-1735), the binding result in assay [1] and in assay [3] was “binds” in each case.
With erbin (from UniProt Q80TH2 1-1402), the binding entry in assay [4] was “no binding”.
On to paxillin (from UniProt Q8VI36 1-591), for which the binding result in assay [1] is “binds”.
In the case of scribble (from UniProt Q80U72 1-1665), the binding entry in assay [4] and in assay [3] was “binds” each time.
Take talin-1 (from UniProt P26039 1-2541): the binding result in assay [5], in assay [6], in assay [3] and in assay [2] was “binds” each time.

For the origin of these results see paper doi:10.1101/2020.01.24.918458.
